Test results: patent US20260294870A1, “INDOLE LACTATE FOR THE TREATMENT OF MULTIPLE SCLEROSIS” (The Johns Hopkins University, priority 2023, published 2026)

Assay: Circulating levels of indole lactate in people with MS and healthy controls (HPLC and tandem mass spectrometry)
Parameters: species or system human

In the case of `O=C(O)C(O)Cc1c[nH]c2ccccc12` (centres unmarked) [indole lactate, indole-3-lactic acid], the “mean difference in levels of indole lactate in the blood, people with MS compared to controls” value (95% CI: −7.19 to −4.33, p=2.61E−15) is reported as −5.76 and the “levels of indole lactate in the blood of people with MS compared to controls” value (people with MS vs healthy controls) is reported as “significant reduction”.
